Patent US7045361B2, “Analyte sensing via acridine-based boronate biosensors” (Medtronic MiniMed, Inc., priority 2001, dated 2006)
Some entries share one result that the patent states for a list of compounds. At least one compound was matched to its structure with a doubt left.

Test: Glucose transduction of monotopic acridine-based boronate biosensor molecules by fluorescence spectroscopy
Method: Glucose transduction of particular acridine-based boronate bio sensor molecules was observed using fluorescence spectroscopy. Fluorescence measurements were taken on a Yorbin Fluorolog instrument. […]
Aliquots of glucose were added and responses were measured at 436 nm, or maximum intensity. (See Table 3).
Another transduction experiment was performed with ACRAB at 500 nm, or approximately 25% of the value of maximum intensity. The data taken at 500 nm generally parallel those taken at 436 nm, thus indicating no decrease in performance of the acridine-based boronate biosensor molecule at the longer wavelength. This shift of 83 nm is very significant in that it provides about a 10-fold increase of transmission of light through tissue and skin.
MEACRAB was then diluted 100-fold to 100 nM and transduction at conditions of ambient temperature. The solution contained 0.5% DMSO.

## Cc1ccc2nc3ccccc3c(CN(CCCCCO)Cc3ccccc3B(O)O)c2c1 [MEACRAB, aminomethylhydroxypentyl-methylacridine boronate]
  wavelengths at which the molecule can be interrogated: up to 500 nm

## aminomethylhydroxypentyl-acridine boronate [ACRAB]
  wavelengths at which the molecule can be interrogated: up to 500 nm
